Values from PubChem BioAssay AID504793 (Drosophila RNAi Screening Center, 2011)
Screen: 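Whole-genome screen for parts of the DNA damage checkpoint at G2/M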 (primary screen). System: Drosophila S2R+ cells. Reagents: long dsRNA against Drosophila genes, about 0.25 µg dsRNA per well. Duration: 4 days of dsRNA, then 4 hours of drug before read-out. Conditions: doxorubicin 0.5 µM for 4 hours to cause double-strand breaks, in cells also given a low, harmless dose of dsRNA against nbs to sensitise the assay. Detection: 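Per-well count of mitotic cells stained for phospho-histone H3 after doxorubicin exposure, used as mitotic index; counts are raw and not normalised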. Scale: mitotic cells: higher = more cells in mitosis, weaker G2 arrest. Active means: 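a call needs confirmation in secondary tests, with other dsRNAs and a check of mitotic timing without damage, not just a high primary count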. Meaning of the calls: active = confirmed in follow-up tests; inactive = not confirmed.
The deposit covers about 23,000 reagents; shown is an unselected part of those with a known target gene and a result. Over the whole deposit, 62 (0.27%) got an active call. 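Calls come from follow-up tests whose scores are not deposited, so confirmed genes may have low counts here; counts are not normalised per plate.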 The raw values are shown without normalisation. A plus sign joins genes that one reagent is predicted to hit.

predicted target	DRSC id	mitotic cells, replicate 1	Outcome
SkpF + CG5357 (retired record)	DRSC04120	7	inactive
CG11406	DRSC04010	5	inactive
CG11406	DRSC04108	4	inactive
RpL41	DRSC22958	11	inactive
vnd	DRSC18849	9	inactive
vnd	DRSC22487	7	inactive
vnd	DRSC25390	5	inactive
Vha36-3	DRSC18615	10	inactive
Vha36-3	DRSC28636	3	inactive
RanBP3	DRSC23153	15	inactive
RanBP3	DRSC27585	2	inactive
CG31391	DRSC16047	10	inactive
stretch (retired record)	DRSC14512	4	inactive
stretch (retired record)	DRSC14541	13	inactive
stretch (retired record)	DRSC14542	9	inactive
stretch (retired record)	DRSC14543	5	inactive
stretch (retired record)	DRSC23038	5	inactive
stretch (retired record)	DRSC28624	4	inactive
stretch (retired record)	DRSC29228	4	inactive
stretch (retired record)	DRSC36547	4	inactive
side-VIII	DRSC05880	20	inactive
side-VIII	DRSC05883	5	inactive
side-VIII	DRSC06157	13	inactive
side-VIII	DRSC23187	11	inactive
side-VIII	DRSC28353	9	inactive
Nak	DRSC03379	4	inactive
Nak	DRSC27565	6	inactive
CG31517	DRSC13010	10	inactive
CG7916	DRSC01901	1	inactive
CG30411	DRSC04004	5	inactive
CG30411	DRSC25684	9	inactive
CG1116	DRSC12166	5	inactive
CG13671	DRSC10030	2	inactive
CG8642	DRSC07228	10	inactive
CG42367	DRSC21388	5	inactive
CG42367	DRSC24728	12	inactive
CG14107	DRSC10110	5	inactive
CG14107	DRSC25136	5	inactive
CG7747	DRSC07038	5	inactive
CG7747	DRSC26745	10	inactive
CG10587	DRSC11627	3	inactive
Jhbp11	DRSC15183	10	inactive
Jhbp11	DRSC29679	7	inactive
CG31544 (retired record)	DRSC12466	13	inactive
CG13326	DRSC06363	5	inactive

3 entries already listed, sorted by “mitotic cells, replicate 1”, lowest first:
predicted target	DRSC id	mitotic cells, replicate 1	Outcome
Nak	DRSC03379	4	inactive
Nak	DRSC27565	6	inactive
CG31517	DRSC13010	10	inactive
